In publication PMC8113560:
No constants are given. Whether binding was seen depends on the method and setting. In cells and extracts the contact can be indirect. Some results given as binding are weak or reduced against the parent protein; the word gives no strength.

Sequences of proteins named here, by UniProt entry; tags and fusion partners are left off. Residues count along the entry.
UniProt P46531, residues 1754-2555: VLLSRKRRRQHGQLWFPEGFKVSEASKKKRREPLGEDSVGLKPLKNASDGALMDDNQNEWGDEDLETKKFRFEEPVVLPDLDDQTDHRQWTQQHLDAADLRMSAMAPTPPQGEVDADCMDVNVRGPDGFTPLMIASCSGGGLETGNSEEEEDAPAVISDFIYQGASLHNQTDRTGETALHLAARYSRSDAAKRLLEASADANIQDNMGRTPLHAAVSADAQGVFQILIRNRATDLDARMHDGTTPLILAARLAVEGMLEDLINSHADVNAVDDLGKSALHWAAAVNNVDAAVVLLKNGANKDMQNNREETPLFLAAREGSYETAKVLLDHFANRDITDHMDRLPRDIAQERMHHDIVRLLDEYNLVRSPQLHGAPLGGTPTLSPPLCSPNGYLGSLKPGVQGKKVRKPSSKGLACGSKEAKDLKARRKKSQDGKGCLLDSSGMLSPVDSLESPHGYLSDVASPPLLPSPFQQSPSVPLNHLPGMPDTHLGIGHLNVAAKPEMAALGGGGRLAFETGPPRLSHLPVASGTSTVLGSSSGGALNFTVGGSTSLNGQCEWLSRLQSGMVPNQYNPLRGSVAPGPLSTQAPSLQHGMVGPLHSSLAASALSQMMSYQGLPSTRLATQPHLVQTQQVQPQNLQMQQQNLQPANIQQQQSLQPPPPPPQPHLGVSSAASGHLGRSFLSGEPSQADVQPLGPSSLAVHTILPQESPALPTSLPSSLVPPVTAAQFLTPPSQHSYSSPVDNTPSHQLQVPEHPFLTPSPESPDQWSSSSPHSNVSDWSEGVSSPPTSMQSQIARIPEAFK
UniProt Q13233: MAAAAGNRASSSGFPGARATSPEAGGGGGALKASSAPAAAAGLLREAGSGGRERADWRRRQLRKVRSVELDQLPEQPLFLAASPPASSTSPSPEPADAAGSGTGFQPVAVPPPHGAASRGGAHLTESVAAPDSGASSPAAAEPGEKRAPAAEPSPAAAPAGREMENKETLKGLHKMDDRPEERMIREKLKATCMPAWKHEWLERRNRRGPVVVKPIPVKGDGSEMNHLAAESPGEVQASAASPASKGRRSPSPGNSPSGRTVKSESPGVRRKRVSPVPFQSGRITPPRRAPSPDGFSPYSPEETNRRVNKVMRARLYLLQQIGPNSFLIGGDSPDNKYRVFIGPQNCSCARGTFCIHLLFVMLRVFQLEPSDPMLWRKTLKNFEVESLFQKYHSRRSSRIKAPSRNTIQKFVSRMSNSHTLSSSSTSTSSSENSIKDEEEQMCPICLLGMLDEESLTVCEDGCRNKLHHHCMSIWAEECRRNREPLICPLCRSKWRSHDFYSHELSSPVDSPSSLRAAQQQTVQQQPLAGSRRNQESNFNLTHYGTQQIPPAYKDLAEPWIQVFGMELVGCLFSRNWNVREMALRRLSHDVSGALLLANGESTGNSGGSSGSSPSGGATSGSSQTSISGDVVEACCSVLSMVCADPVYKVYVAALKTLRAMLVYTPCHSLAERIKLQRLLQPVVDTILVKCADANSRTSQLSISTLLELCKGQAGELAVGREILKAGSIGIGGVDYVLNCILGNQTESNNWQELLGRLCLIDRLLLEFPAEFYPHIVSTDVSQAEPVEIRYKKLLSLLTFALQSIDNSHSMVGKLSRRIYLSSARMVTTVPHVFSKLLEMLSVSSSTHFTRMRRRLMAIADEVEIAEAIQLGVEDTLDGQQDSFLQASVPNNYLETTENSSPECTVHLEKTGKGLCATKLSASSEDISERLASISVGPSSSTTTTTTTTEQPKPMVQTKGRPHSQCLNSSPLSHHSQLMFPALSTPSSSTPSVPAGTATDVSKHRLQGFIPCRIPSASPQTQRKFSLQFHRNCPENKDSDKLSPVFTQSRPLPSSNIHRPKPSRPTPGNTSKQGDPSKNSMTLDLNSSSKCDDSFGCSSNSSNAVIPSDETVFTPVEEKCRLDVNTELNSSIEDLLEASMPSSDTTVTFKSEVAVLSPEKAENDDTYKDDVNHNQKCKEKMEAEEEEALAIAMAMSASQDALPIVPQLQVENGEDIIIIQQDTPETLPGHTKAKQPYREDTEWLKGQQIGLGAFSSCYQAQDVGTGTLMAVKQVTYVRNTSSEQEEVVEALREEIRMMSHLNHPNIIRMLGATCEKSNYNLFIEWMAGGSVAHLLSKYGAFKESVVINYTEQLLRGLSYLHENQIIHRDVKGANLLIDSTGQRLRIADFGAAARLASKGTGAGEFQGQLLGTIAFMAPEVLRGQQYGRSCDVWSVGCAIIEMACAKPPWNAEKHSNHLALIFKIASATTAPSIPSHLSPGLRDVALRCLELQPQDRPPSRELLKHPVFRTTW
UniProt P49336: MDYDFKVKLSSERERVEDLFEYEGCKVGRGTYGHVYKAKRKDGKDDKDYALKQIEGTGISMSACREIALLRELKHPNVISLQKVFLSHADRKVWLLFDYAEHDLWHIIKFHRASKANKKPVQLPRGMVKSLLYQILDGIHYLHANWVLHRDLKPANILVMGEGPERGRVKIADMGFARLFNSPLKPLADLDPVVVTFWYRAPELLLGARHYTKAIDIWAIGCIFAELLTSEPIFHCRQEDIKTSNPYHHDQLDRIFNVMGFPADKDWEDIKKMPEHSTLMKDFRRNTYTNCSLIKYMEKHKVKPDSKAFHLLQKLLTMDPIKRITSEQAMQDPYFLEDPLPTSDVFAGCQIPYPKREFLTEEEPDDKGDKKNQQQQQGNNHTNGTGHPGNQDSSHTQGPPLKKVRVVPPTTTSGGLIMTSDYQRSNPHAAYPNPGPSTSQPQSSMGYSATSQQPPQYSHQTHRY
UniProt P49841: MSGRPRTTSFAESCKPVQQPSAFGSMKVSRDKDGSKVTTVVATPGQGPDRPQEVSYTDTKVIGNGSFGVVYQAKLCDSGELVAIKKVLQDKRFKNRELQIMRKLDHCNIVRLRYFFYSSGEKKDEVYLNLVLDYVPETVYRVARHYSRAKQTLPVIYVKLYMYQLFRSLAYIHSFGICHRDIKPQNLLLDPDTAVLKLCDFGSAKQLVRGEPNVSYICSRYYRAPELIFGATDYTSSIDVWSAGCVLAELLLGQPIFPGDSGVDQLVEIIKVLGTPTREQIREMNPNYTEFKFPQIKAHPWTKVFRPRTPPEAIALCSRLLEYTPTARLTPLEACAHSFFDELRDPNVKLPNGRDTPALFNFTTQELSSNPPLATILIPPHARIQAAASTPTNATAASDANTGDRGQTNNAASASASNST
UniProt P35249: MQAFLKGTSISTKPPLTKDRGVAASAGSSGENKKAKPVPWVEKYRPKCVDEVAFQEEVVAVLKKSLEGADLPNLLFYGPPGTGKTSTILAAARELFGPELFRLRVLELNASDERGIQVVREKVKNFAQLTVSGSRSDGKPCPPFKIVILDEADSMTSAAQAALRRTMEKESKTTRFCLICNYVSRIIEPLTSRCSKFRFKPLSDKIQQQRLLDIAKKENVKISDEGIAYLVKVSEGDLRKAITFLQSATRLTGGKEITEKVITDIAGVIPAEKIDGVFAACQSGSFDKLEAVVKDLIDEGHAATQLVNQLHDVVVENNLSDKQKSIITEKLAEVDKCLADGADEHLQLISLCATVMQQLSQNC

What follows are substances tested against endogenous Notch1 intracellular domain (NICD1) (human (endogenous in A549)) (UniProt P46531) (assay: co-IP; lysates in NP-40-containing lysis buffer; FLAG or HA affinity agarose (or precipitation of endogenous RFC4, Notch1 or NICD1) overnight at 4 °C; wash 150 mM NaCl, 10 mM HEPES pH 7.4, 0.1% NP-40; cells with RFC4, CDK8, Notch1 or FBXW7 silenced, knocked out or overexpressed).

binding, binds:
MEKK1 (from UniProt Q13233 1-1512) (enzyme), endogenous CDK8 (from UniProt P49336 1-464) (enzyme), GSK-3β (from UniProt P49841 1-420) (enzyme), endogenous RFC4 (from UniProt P35249 1-363)
